Measured values published in PubChem BioAssay AID493014 (National Center for Advancing Translational Sciences (NCATS), 2011).
This is one part of the list. Further columns of the screen follow, without active or inactive calls. The list favours compounds with an active or inconclusive main result. The note in brackets gives the kind of curve behind each potency; many fits are weak.

Test: qHTS Assay to Find Inhibitors of Chronic Active B-Cell Receptor Signaling
Settings: ABC-DLBCL IkBa-CBG/CBR reporter, luminescence ratio (green luciferase fused to IkBa over red control in TMD8 lymphoma cells), 4 h
Outline: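 Compounds up to 46 uM were incubated four hours with TMD8 cells whose green CBG68 luciferase is fused to IkappaBalpha; red CBR luminescence normalised the signal, and concentration-effect curves were fitted to fusion, red and ratio data.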

[1] = measured here: CBR red luminescence, cell number
[2] = measured here: IkBa-CBG green luminescence

SMILES | AC50 [1] | AC50 [2]
O=C(CSc1ccc(Cl)cc1)Nc1ccc(C2SCCS2)cc1 | 12.6 µM [rising, partial curve, poor fit] | –
CC(=O)Oc1ccc(C(=O)Nc2ccccc2C(=O)N2CCCC2)cc1 | 35.5 µM [falling, single point] | –
COc1cccc(-c2csc(N3CCN(CC(=O)NNC(=O)c4ccco4)CC3)n2)c1 | 5.62 µM [rising, single point] | –
COc1ccc(C(=O)OCc2csc(C)n2)c(O)c1 | 0.316 µM [rising, full curve, poor fit] | –
Cc1sc2nc(CN3CCN(S(=O)(=O)c4cccc5nonc45)CC3)[nH]c(=O)c2c1C | 0.103 µM [rising, partial curve, poor fit] | –
O=C(O)CCCn1c(O)c(C=C2N=c3ccccc3=N2)sc1=S | 0.316 µM [falling, full curve, poor fit] | –
Cn1c(SCC(=O)Nc2ccccc2Oc2ccccc2)nnc1C1CC1 | 23.1 µM [rising, partial curve, poor fit] | –
COCCCNC(=O)c1c(N)n(/N=C/c2ccccn2)c2nc3ccccc3nc12 | 11.2 µM [falling, partial curve] | –
O=c1cc(-c2ccc(O)c(O)c2)oc2c1ccc1ccccc12 | 2.59 µM [falling, partial curve, poor fit] | –
Cc1ccc(NS(=O)(=O)c2ccc(NC(=O)C(C)Sc3ccc(Cl)cc3)cc2)c(C)c1 (stereo unspecified) | 29.1 µM [falling, partial curve] | 25.9 µM [rising, single point]
CCc1ccc(C(=O)Nc2cc(C)ccc2F)s1 | 12.6 µM [falling, partial curve] | –
CC1CCN(C(C(=O)O)c2ccccc2)CC1 (stereo unspecified) | 6.31 µM [rising, partial curve, poor fit] | –
COc1ccc(NC(C)=O)cc1NS(=O)(=O)c1ccc2c(c1)OCCO2 | 32.6 µM [rising, partial curve, poor fit] | –
COC(=O)c1n[nH]n(-c2cc(Cl)cc(Cl)c2)c1=O | 10 µM [falling, single point] | –
O=C(c1cc2ccccc2o1)c1nc2c(n1O)CCCCC2 | 3.26 µM [falling, partial curve, poor fit] | –
O=C(Nc1ccc(Br)cn1)c1ccc(Br)s1 | 11.2 µM [falling, single point] | –
CCOc1ccc(C(=O)C(CCC(CN(C)C)C(=O)c2ccc(OCC)cc2)CN(C)C)cc1 (stereo unspecified) | 1.3 µM [falling, full curve] | 11.6 µM [rising, partial curve, poor fit]
CCC(NC(=O)c1ccccc1NC(=O)c1ccccc1)C(=O)OC (stereo unspecified) | 15.8 µM [falling, partial curve, poor fit] | –
Cc1cc2nc3c(nc2cc1C)CCCC3 | 10 µM [rising, partial curve, poor fit] | –
COC(=O)C(NC(C)=O)(Nc1ccc(Br)cc1)C(=O)OC | 6.31 µM [rising, partial curve, poor fit] | –

SMILES | AC50 [1] | AC50 [2]
COc1ccc(N(CC(=O)Nc2cccc(OC)c2)S(=O)(=O)c2c(C)nn(C)c2C)cc1 | 1.78 µM [falling, partial curve] | –
COc1ccccc1NC(=O)Nc1nc(CC(=O)Nc2ccc(OC)c(OC)c2)cs1 | 0.461 µM [rising, partial curve, poor fit] | –
O=C(C1COc2ccccc2O1)N1CCc2ccccc2C1 (stereo unspecified) | 7.31 µM [rising, partial curve, poor fit] | –
COc1cc(/C(C)=N/NC(=S)NC(C)C)cc(OC)c1OC | 16.4 µM [falling, partial curve, poor fit] | 20.6 µM [falling, partial curve, poor fit]
COc1ccc(S(N)(=O)=O)cc1C(=O)OCC(=O)Nc1sccc1C#N | 14.6 µM [rising, partial curve] | –
CC(C)OC(=O)C(C(=O)C(F)(F)F)c1cc(NS(=O)(=O)c2ccc3ccccc3c2)c2ccccc2c1O (stereo unspecified) | 0.92 µM [falling, full curve] | –
COc1ccc(C(=O)CC(=O)c2ccccc2O)cc1 | 3.55 µM [rising, partial curve, poor fit] | –
CCN(CC)CCNC(=O)c1ccc2c(c1)ncn2C1CCCCC1 | 14.1 µM [rising, single point] | –
O=c1/c(=C/c2ccc([N+](=O)[O-])cc2)sc2n1CCCN=2 | 14.1 µM [falling, single point] | –
Cc1cc(C)c2cc(CN(CCO)Cc3nnnn3Cc3ccccc3)c(=O)[nH]c2c1 | 35.5 µM [falling, single point] | –
Cc1cccc(NC(=O)c2ccccc2NC(=O)Cc2ccccc2)c1C | 15.8 µM [falling, single point] | –
O=C(NC1CCCCC1)c1cc2nc3c(c(C(F)(F)F)n2n1)CCCC3 | 3.26 µM [rising, partial curve, poor fit] | –
CC[C@]12c3[nH]c4cc(CCC(=O)N(C)C)ccc4c3CCN1C(=O)[C@@H](CC(=O)NC/C=C(\C)CCC=C(C)C)C[C@@H]2C(=O)N1CCN(C(=O)C2CC2)CC1 | – | 23.1 µM [falling, partial curve, poor fit]
O/N=C(/CCc1ccccc1)c1ccc2c(c1)OCCO2 | 3.98 µM [rising, partial curve] | –
Cc1nc(Nc2cccc(C(F)(F)F)c2)nc2c1C(=O)CC(C)C2 (stereo unspecified) | 0.00517 µM [rising, full curve, poor fit] | –
O=C(c1[nH]nc2c1CCc1ccccc1-2)N1CCN(Cc2ccc3c(c2)OCO3)CC1 | 11.2 µM [falling, single point] | –
CCOc1ccc(Cl)cc1CSc1n[nH]c(C)n1 | 17.8 µM [rising, single point] | –
O=C(c1cccc(S(=O)(=O)N2CCc3ccccc32)c1)N1CCCC(C(F)(F)F)C1 (stereo unspecified) | 6.51 µM [falling, full curve] | –
COc1cccc(Nc2ncnc3sccc23)c1 | 14.1 µM [falling, single point] | –
O=C1C2C3C=CC(CC3)C2C(=O)N1/N=C/c1c[nH]c2ccccc12 (stereo unspecified) | 2 µM [falling, partial curve, poor fit] | –

Entries listed so far that have a COOH group (2):
SMILES | AC50 [1] | AC50 [2]
O=C(O)CCCn1c(O)c(C=C2N=c3ccccc3=N2)sc1=S | 0.316 µM [falling, full curve, poor fit] | –
CC1CCN(C(C(=O)O)c2ccccc2)CC1 (stereo unspecified) | 6.31 µM [rising, partial curve, poor fit] | –

Later entries:

SMILES | AC50 [1] | AC50 [2]
NC(=O)CSc1nnnn1-c1ccc(OC(F)(F)F)cc1 | 1.78 µM [rising, partial curve] | –
O=C(COC(=O)/C=C/c1cccc(Cl)c1)NC(=O)NCc1ccccc1 | 0.116 µM [falling, partial curve, poor fit] | –
CC(=O)Nc1ccc(S(=O)(=O)Nc2nc3n(n2)C(c2ccccc2)CC(=O)N3)cc1 (stereo unspecified) | 3.66 µM [falling, full curve] | 2.91 µM [rising, full curve, poor fit]
O=C(CSCc1ccc(Cl)cc1Cl)Nc1ccc(O)cc1C(=O)O | 10 µM [falling, partial curve, poor fit] | –
COCCn1c(=S)[nH]c2cc(C(=O)N(CCO)Cc3ccccc3)ccc2c1=O | 3.55 µM [falling, partial curve, poor fit] | –
COc1c2n(C)ccc3c-2n(c(=O)c1=O)c1ccccc31 | 14.6 µM [rising, single point] | –
CCCCCCCCOC(=O)C(NC(=O)CCC(=O)Nc1ccc(S(N)(=O)=O)cc1)C(O)c1ccccc1 (stereo unspecified) | 0.82 µM [rising, full curve, poor fit] | –
O=C(Nc1ccccc1C(=O)N1CCOCC1)c1cccnc1 | 13 µM [rising, partial curve] | –
COc1ccc(C(=O)NCCc2ccccn2)cc1S(=O)(=O)Nc1ccc(Br)cc1 | 23.1 µM [rising, partial curve, poor fit] | –
O=C(NCCCO)c1ccc(CSc2nc3ccccc3c(=O)[nH]2)cc1 | 1.41 µM [rising, partial curve, poor fit] | –
C/C(=N\NS(=O)(=O)c1ccc(C)cc1)c1ccc(C)o1 | 15.8 µM [rising, partial curve, poor fit] | –
O=C(NCc1ccccc1F)C(=O)NCC(c1ccco1)S(=O)(=O)c1ccccc1 (stereo unspecified) | 0.631 µM [rising, full curve, poor fit] | –
N#Cc1ccsc1NC(=O)CCN1CCN(C(c2ccccc2)c2ccccc2)CC1 | 35.5 µM [falling, single point] | –
Oc1[nH]c2ccccc2c1N=Nc1cccc(Cl)c1 | 3.16 µM [falling, partial curve, poor fit] | –
Cc1ccc(C(=O)OCC(=O)Nc2ncc(Cl)cc2Cl)cc1NC(=O)c1ccco1 | 20.6 µM [rising, single point] | –
Cc1c(Cc2ccccc2)sc(NC(=O)C(C)(C)C)c1C(N)=O | 15.8 µM [falling, single point] | 12.6 µM [rising, partial curve, poor fit]
CC(Sc1ncnc2ccccc12)C(=O)Nc1ccc2c(c1)OCCO2 (stereo unspecified) | 29.1 µM [falling, single point] | 25.9 µM [rising, partial curve, poor fit]
N/C(=N\OC(=O)c1cccc(F)c1)c1cccc([N+](=O)[O-])c1 | 2.51 µM [rising, partial curve, poor fit] | –
O=[N+]([O-])c1ccc(S(=O)(=O)c2ccccc2)nc1 | 11.2 µM [falling, partial curve, poor fit] | –
CCOc1ccc2[nH]c(=O)c(CN(CCN3CCCC3)C(=S)Nc3ccccc3OCC)cc2c1 | 31.6 µM [falling, single point] | –
